These results are taken from PMC5428413.

By UniProt entry, the sequences of proteins in these tests, tags left out. Residues count along the entry.
UniProt P26618, residues 25-1089: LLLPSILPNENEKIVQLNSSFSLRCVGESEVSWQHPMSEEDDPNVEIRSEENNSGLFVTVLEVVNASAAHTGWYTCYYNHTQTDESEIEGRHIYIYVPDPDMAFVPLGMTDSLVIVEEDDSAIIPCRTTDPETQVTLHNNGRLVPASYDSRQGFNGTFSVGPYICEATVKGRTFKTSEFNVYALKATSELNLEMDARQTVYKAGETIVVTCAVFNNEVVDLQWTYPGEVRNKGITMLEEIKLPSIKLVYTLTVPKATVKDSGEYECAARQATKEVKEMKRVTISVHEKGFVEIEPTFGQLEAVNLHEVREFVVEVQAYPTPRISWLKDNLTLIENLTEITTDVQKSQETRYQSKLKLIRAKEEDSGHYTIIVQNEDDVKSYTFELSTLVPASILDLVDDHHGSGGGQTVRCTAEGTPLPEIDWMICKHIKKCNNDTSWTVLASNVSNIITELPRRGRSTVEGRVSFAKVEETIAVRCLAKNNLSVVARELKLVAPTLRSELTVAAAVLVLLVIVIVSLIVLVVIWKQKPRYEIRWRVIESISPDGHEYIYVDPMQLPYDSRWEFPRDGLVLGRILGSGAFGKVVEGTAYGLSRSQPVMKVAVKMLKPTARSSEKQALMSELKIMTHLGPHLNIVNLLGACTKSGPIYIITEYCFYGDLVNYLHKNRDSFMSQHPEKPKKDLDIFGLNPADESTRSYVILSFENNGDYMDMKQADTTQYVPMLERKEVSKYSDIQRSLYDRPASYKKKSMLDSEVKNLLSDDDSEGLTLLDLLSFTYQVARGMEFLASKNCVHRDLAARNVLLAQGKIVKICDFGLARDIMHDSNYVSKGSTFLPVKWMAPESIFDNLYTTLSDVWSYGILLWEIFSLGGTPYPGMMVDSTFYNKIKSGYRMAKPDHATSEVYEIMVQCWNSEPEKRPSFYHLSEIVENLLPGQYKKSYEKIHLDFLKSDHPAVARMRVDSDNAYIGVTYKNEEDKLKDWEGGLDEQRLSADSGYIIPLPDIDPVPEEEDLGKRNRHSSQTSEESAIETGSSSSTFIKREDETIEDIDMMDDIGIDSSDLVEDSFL

Assay [1] concerns the target FLAG-tagged PDGFRA (mouse) (UniProt P26618). The experiment in a line: co-IP; FLAG-tagged bait co-expressed with PDGFA-HA in HEK293T for 48 h; lysis buffer 25 mM Tris pH 7.4, 150 mM NaCl, 1% NP40, 0.25% sodium deoxycholate, 1 mM EDTA; anti-FLAG magnetic beads overnight at 4 °C; eluted with 3xFlag peptide; blotted with anti-FLAG and anti-HA.
Assay [2] concerns the target T1, FLAG-tagged TMEFF2 (mouse) (UniProt Q9QYM9).
T1 sequence: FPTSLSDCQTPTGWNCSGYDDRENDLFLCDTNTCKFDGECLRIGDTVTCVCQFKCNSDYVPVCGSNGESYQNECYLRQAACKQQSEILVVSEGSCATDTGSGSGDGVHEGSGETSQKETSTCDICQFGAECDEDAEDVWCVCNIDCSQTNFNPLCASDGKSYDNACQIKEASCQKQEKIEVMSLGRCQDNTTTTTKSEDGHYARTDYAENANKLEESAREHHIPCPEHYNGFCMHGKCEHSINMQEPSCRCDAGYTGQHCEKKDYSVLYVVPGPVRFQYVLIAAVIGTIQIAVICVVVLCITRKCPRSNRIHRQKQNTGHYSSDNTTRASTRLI
The description is as above.

No constants are given. Whether binding was seen depends on the method and setting. Binding seen in cells or lysates may run through a third protein. Binding can be weak; no strength is given. For some assays here: Where a sequence is shown, tags or fusion partners need not be part of it.

For “HA-tagged PDGFA (from UniProt P20033-2) (ligand)”, the binding result in assay [1] was “binds”; in assay [2] it was “binds weakly”.
